In patent US20040259787A1:
Results are given in words; binding and its absence hold for the method and conditions named. Some results given as binding are weak or reduced against the parent protein; the word gives no strength.

Biological target: recombinant CUB-domain of human cC1qR/CRT, thioredoxin fusion protein (human)
Assay: competitive inhibition of radiolabelled CUB-domain binding to immobilised C1q

B1: CL43 (ligand, UniProt P42916 21-321, looked up)
chain: EEMDVYSEKTLTDPCTLVVCAPPADSLRGHDGRDGKEGPQGEKGDPGPPGMPGPAGREGPSGRQGSMGPPGTPGPKGEPGPEGGVGAPGMPGSPGPAGLKGERGTPGPGGAIGPQGPSGAMGPPGLKGDRGDPGEKGARGETSVLEVDTLRQRMRNLEGEVQRLQNIVTQYRKAVLFPDGQAVGEKIFKTAGAVKSYSDAEQLCREAKGQLASPRSSAENEAVTQLVRAKNKHAYLSMNDISKEGKFTYPTGGSLDYSNWAPGEPNNRAKDEGPENCLEIYSDGNWNDIECREERLVICEF
  binding: binds
